PubChem BioAssay AID1259424, University of Nebraska Medical Center – 2018
Shown is one part, drawn at random, of about 14,000 reagents tested. 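Higher correlation or smaller distance means closer resemblance to KSR1 loss; control wells, including KSR1 knockdowns, recur on many plates.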 The record does not give: the time to read-out.

Test: 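Seek colon cancer survival genes behaving like KSR1, using a six-gene signature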 (primary screen)
Cell system: human HCT116 colon cancer cells
Knock-down reagent: siRNA pool against human genes, 50 nM
Detection: 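Six signature mRNAs by branched-DNA multiplex assay, scaled to two housekeeping genes and non-targeting median, log2; matched to mean KSR1 knockdown profile by Pearson correlation and euclidean distance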
Scale: mean correlation with KSR1 profile and KSR1 correlation: higher = expression change more like KSR1 knockdown; mean distance from KSR1 profile: higher = expression change less like KSR1 knockdown

target,mean correlation with KSR1 profile,mean distance from KSR1 profile,"KSR1 correlation, replicate 1","KSR1 correlation, replicate 2","KSR1 correlation, replicate 3"
IFI27L2,0.319,1.76,0.181,0.313,0.239
RPL22,-0.00811,1.99,0.0255,-0.21,0.168
DMRTC2,-0.613,2.55,-0.324,-0.709,-0.747
TXNDC2,0.987,1.29,0.919,0.943,0.882
SLC25A3,0.334,0.796,0.616,0.817,-0.603
CAMTA2,-0.00018,1.48,0.084,0.0169,-0.11
CDK3,0.902,1.64,0.885,0.885,0.834
POSTN,0.732,0.926,0.758,0.701,0.545
BCL2L11,-0.633,2.3,-0.496,-0.791,-0.709
TTC13,0.412,2.84,0.476,0.395,0.414
ELK1,0.19,2.09,-0.547,0.542,0.375
MARCO,-0.317,2.12,-0.323,-0.169,-0.582
KIAA1217,-0.175,1.29,-0.00284,-0.0811,-0.509
SSC4D,0.116,2.57,-0.805,0.238,0.7
ADRB3,-0.393,4.17,-0.314,-0.212,-0.605
AAAS,-0.0112,2.12,-0.183,0.235,-0.09
PTGIS,0.376,3.39,0.378,0.412,0.315
LINGO1,0.744,1.7,0.714,0.678,0.554
ZSWIM4,-0.365,4.2,-0.279,-0.533,-0.425
CALML5,0.309,1.96,0.442,0.259,0.196
PPP1R12B,-0.375,2.25,-0.379,-0.202,-0.467
REST,-0.108,2.3,0.0113,0.219,-0.17
SEC22B,-0.0191,3.7,-0.0364,0.0298,-0.0981
MAPKAP1,-0.34,1.32,-0.484,-0.0818,-0.372
VAT1L,0.155,2.01,-0.134,0.227,0.492
STX4,0.0419,2.03,0.092,-0.0851,0.0677
HBQ1,0.385,1.29,0.273,0.104,0.454
EFL1,0.355,2.18,0.379,0.39,0.412
SLC35G2,0.476,1.48,0.339,0.512,0.401
SERPINB7,-0.394,2.15,-0.378,-0.312,-0.413
AHNAK,0.86,2.24,0.746,0.778,0.848
ZNF250,0.0541,2.48,0.0977,0.184,-0.0131
SPATA2,0.314,3.35,0.428,0.275,0.225
OR7E91P,0.239,2.61,0.214,0.358,0.254
TSSK2,-0.528,3.32,-0.123,-0.689,-0.578
BMP6,-0.213,1.63,-0.0279,-0.372,-0.165
NLGN4X,-0.716,2.99,-0.623,-0.664,-0.616
STT3A,-0.101,1.58,-0.306,-0.259,0.119
KCNC4,-0.321,4.57,-0.262,-0.353,-0.247
CHD9,-0.0664,2.41,-0.0686,-0.283,-0.111
KNL1,-0.581,3.29,-0.348,-0.545,-0.611
MRPS11,0.127,1.53,0.0934,0.0597,0.0818
RPS5,-0.0663,3.39,0.423,-0.316,-0.333
FUBP1,0.205,2.17,0.461,0.174,-0.0258
KCMF1,-0.127,1.88,-0.0344,-0.319,-0.0836
SPRYD7,-0.523,1.87,-0.64,-0.437,-0.552
IPPK,-0.164,3.28,0.00394,-0.407,-0.386
PPP2R2C,-0.603,1.63,-0.593,-0.152,-0.819
KLK2,-0.921,2.12,-0.817,-0.973,-0.946
FBXO40,0.534,1.88,0.568,0.402,0.55

3 entries from above, set out differently.
MARCO: mean correlation with KSR1 profile = -0.317; mean distance from KSR1 profile = 2.12; KSR1 correlation, replicate 1 = -0.323; KSR1 correlation, replicate 2 = -0.169; KSR1 correlation, replicate 3 = -0.582
KIAA1217: mean correlation with KSR1 profile = -0.175; mean distance from KSR1 profile = 1.29; KSR1 correlation, replicate 1 = -0.00284; KSR1 correlation, replicate 2 = -0.0811; KSR1 correlation, replicate 3 = -0.509
SSC4D: mean correlation with KSR1 profile = 0.116; mean distance from KSR1 profile = 2.57; KSR1 correlation, replicate 1 = -0.805; KSR1 correlation, replicate 2 = 0.238; KSR1 correlation, replicate 3 = 0.7
